In PubChem BioAssay AID248 (DTP/NCI, 2004):
The list shows only some results of the screen, not a fair sample: it gathers tests that were run many times, whatever their T/C, doses with no T/C, and many T/C values between a quarter and a half above the control. Further doses and runs are listed elsewhere. T/C is the treated group as % of the vehicle group. Some doses have a count of surviving animals in place of a T/C: the source files T/C as zero there, which appears to mark a toxic dose or a test without result, not a measured value. Some doses without a T/C left all or most animals alive at the check, yet need not have been tolerated: survival well below the control is almost never listed, so the zero probably covers shortened survival too. Survivors were counted at the toxicity check, usually on the fifth day, unless a day is given; later deaths do not show. Schedule codes are those of the source, taken here to give the interval after Q, in days (D) or hours (H), and the number of doses after X. Some schedules carry Z or #; the key to these is not given. Where survival is the endpoint, this PubChem deposit counts one and a half times the control or more as active, and values a quarter to a half above the control carry no call in these data; other NCI protocols may use other cut-offs. Some T/C values are followed by the survivors on the day toxicity was checked, most often the fifth; without a count, all were alive then. Some entries were tested several times; the values are given in rising order.

System: L1210 leukemia ip in BDF1 mice, survival T/C
Assay: NCI In Vivo Anticancer Drug Screen. Data for tumor model L1210 Leukemia (intraperitoneal) in B6D2F1 (BDF1) mice
Settings: higher T/C = longer survival
[1] = T/C endpoint: mean survival time, dose: 400.0 mg/kg/injection, schedule: Q04DX003 (ip), vehicle: Klucel (hydroxypropylcellulose) (HPC)

COC(=O)C[C@](O)(CCCC(C)(C)O)C(=O)O[C@@H]1C(OC)=C[C@]23CCCN2CCc2cc4c(cc2[C@H]13)OCO4
T/C (T/C endpoint: mean survival time, dose: 0.5 mg/kg/injection, schedule: Q01DX009 (ip), vehicle: saline): 126 % of control | T/C (T/C endpoint: mean survival time, dose: 0.5 mg/kg/injection, schedule: Q01DX009 (ip), vehicle: water): 116, 120, 123, 126 % of control | T/C (T/C endpoint: mean survival time, dose: 1.0 mg/kg/injection, schedule: Q01DX009 (ip), vehicle: acid diluted with saline): 130 % of control | T/C (T/C endpoint: mean survival time, dose: 1.0 mg/kg/injection, schedule: Q01DX009 (ip), vehicle: saline): 134 % of control | T/C (T/C endpoint: mean survival time, dose: 1.0 mg/kg/injection, schedule: Q01DX009 (ip), vehicle: water): 124, 131, 140, 142 % of control | T/C (T/C endpoint: mean survival time, dose: 2.0 mg/kg/injection, schedule: Q01DX009 (ip), vehicle: saline): 138 % of control | T/C (T/C endpoint: mean survival time, dose: 2.0 mg/kg/injection, schedule: Q01DX009 (ip), vehicle: water): 101, 113, 117 [9 of 10 alive], 140 % of control | T/C (T/C endpoint: mean survival time, dose: 2.0 mg/kg/injection, schedule: Q01DX009 (sc), vehicle: acid diluted with saline): 138 % of control | survivor count (T/C endpoint: mean survival time, dose: 2.0 mg/kg/injection, schedule: Q03HX008 (ip), vehicle: acid diluted with saline): 0 of 10 | survivor count (T/C endpoint: mean survival time, dose: 2.0 mg/kg/injection, schedule: Q03HX016 (ip), vehicle: acid diluted with saline): 0 of 10 | T/C (T/C endpoint: mean survival time, dose: 2.0 mg/kg/injection, schedule: Q04DX003 (ip), vehicle: acid diluted with saline): 127 % of control | survivor count (T/C endpoint: mean survival time, dose: 4.0 mg/kg/injection, schedule: Q01DX009 (ip), vehicle: saline): 4 of 10 | survivor count (T/C endpoint: mean survival time, dose: 4.0 mg/kg/injection, schedule: Q01DX009 (ip), vehicle: water): 4 of 10 | survivor count (T/C endpoint: mean survival time, dose: 4.0 mg/kg/injection, schedule: Q01DX009 (oral), vehicle: saline): 6 of 10 | survivor count (T/C endpoint: mean survival time, dose: 4.0 mg/kg/injection, schedule: Q01DX009 (sc), vehicle: saline): 5 of 10 | survivor count (T/C endpoint: mean survival time, dose: 8.0 mg/kg/injection, schedule: Q01DX001 (ip), vehicle: acid diluted with saline): 2 of 10 | survivor count (T/C endpoint: mean survival time, dose: 8.0 mg/kg/injection, schedule: Q01DX001 (oral), vehicle: acid diluted with saline): 6 of 10 | survivor count (T/C endpoint: mean survival time, dose: 8.0 mg/kg/injection, schedule: Q01DX001 (sc), vehicle: acid diluted with saline): 5 of 10 | survivor count (T/C endpoint: mean survival time, dose: 8.0 mg/kg/injection, schedule: Q01DX009 (ip), vehicle: saline): 0 of 10 | survivor count (T/C endpoint: mean survival time, dose: 8.0 mg/kg/injection, schedule: Q01DX009 (ip), vehicle: water): 0 of 10 | survivor count (T/C endpoint: mean survival time, dose: 8.0 mg/kg/injection, schedule: Q01DX009 (oral), vehicle: acid diluted with saline): 0 of 10 | survivor count (T/C endpoint: mean survival time, dose: 8.0 mg/kg/injection, schedule: Q01DX009 (oral), vehicle: saline): 0 of 10 | survivor count (T/C endpoint: mean survival time, dose: 8.0 mg/kg/injection, schedule: Q01DX009 (sc), vehicle: saline): 0 of 10 | survivor count (T/C endpoint: mean survival time, dose: 8.0 mg/kg/injection, schedule: Q08DX002 (ip), vehicle: acid diluted with saline): 3 of 10 | survivor count (T/C endpoint: mean survival time, dose: 16.0 mg/kg/injection, schedule: Q01DX001 (ip), vehicle: acid diluted with saline): 1 of 10 | survivor count (T/C endpoint: mean survival time, dose: 16.0 mg/kg/injection, schedule: Q01DX001 (iv), vehicle: acid diluted with saline): 0 of 10 | survivor count (T/C endpoint: mean survival time, dose: 16.0 mg/kg/injection, schedule: Q01DX001 (oral), vehicle: acid diluted with saline): 0 of 10 | survivor count (T/C endpoint: mean survival time, dose: 16.0 mg/kg/injection, schedule: Q01DX001 (sc), vehicle: acid diluted with saline): 0 of 10 | survivor count (T/C endpoint: mean survival time, dose: 16.0 mg/kg/injection, schedule: Q08DX002 (ip), vehicle: acid diluted with saline): 0 of 10 | survivor count (T/C endpoint: mean survival time, dose: 32.0 mg/kg/injection, schedule: Q01DX001 (oral), vehicle: acid diluted with saline): 0 of 10 | T/C (T/C endpoint: mean survival time, dose: 250.0 micrograms/kg/injection, schedule: Q03HX024 (ip), vehicle: acid diluted with saline): 130 % of control | T/C (T/C endpoint: mean survival time, dose: 500.0 micrograms/kg/injection, schedule: Q03HX024 (ip), vehicle: acid diluted with saline): 136 % of control | survivor count (T/C endpoint: mean survival time, dose: 2000.0 micrograms/kg/injection, schedule: Q03HX024 (ip), vehicle: acid diluted with saline): 0 of 10 | survivor count (T/C endpoint: median survival time, dose: 8.0 mg/kg/injection, schedule: Q04DX003 (ip), vehicle: saline): 1 of 8 | survivor count (T/C endpoint: median survival time, dose: 16.0 mg/kg/injection, schedule: Q04DX003 (ip), vehicle: saline): 0 of 8

Cc1ccc(C(C)C)c(OC(=O)Nc2ccc(Cl)cc2)c1
T/C [1]: 126 % of control

CC1(C)OC(=O)C2CCCCC21 (centres undefined)
survivor count (T/C endpoint: mean survival time, dose: 100.0 mg/kg/injection, schedule: Q01DX009 (ip), vehicle: saline): 0 of 6 | survivor count (T/C endpoint: mean survival time, dose: 400.0 mg/kg/injection, schedule: Q01DX001 (ip), vehicle: saline): 1 of 6

c1ccc(NP2(Nc3ccccc3)=NP(Nc3ccccc3)(Nc3ccccc3)=NP(Nc3ccccc3)(Nc3ccccc3)=N2)cc1
survivor count [1]: 3 of 3

CC12CCCCC1SC(F)(F)C2(F)F (centres undefined)
survivor count (T/C endpoint: mean survival time, dose: 50.0 mg/kg/injection, schedule: Q01DX009 (ip), vehicle: saline with Tween-80): 0 of 6

CCc1c(N)nc(N)[nH]c1=O
T/C (T/C endpoint: mean survival time, dose: 100.0 mg/kg/injection, schedule: Q01DX001 (ip), vehicle: Klucel (hydroxypropylcellulose) (HPC)): 140 % of control | T/C (T/C endpoint: mean survival time, dose: 400.0 mg/kg/injection, schedule: Q01DX001 (ip), vehicle: Klucel (hydroxypropylcellulose) (HPC)): 136 % of control

O=C1/C(=C\c2ccccc2)Oc2cc(O)c(O)cc21
survivor count (T/C endpoint: mean survival time, dose: 200.0 mg/kg/injection, schedule: Q01DX001 (ip), vehicle: saline with Tween-80): 2 of 6 | survivor count (T/C endpoint: mean survival time, dose: 400.0 mg/kg/injection, schedule: Q01DX001 (ip), vehicle: saline with Tween-80): 0 of 6

S=C=NC1CCC(CC2CCCCC2)CC1 (centres undefined)
survivor count (T/C endpoint: mean survival time, dose: 200.0 mg/kg/injection, schedule: Q01DX009 (ip), vehicle: Klucel (hydroxypropylcellulose) (HPC)): 2 of 6 | survivor count (T/C endpoint: mean survival time, dose: 400.0 mg/kg/injection, schedule: Q01DX009 (ip), vehicle: Klucel (hydroxypropylcellulose) (HPC)): 1 of 6

CC(C#N)Oc1cccc2ccccc12 (centres undefined)
survivor count (T/C endpoint: mean survival time, dose: 400.0 mg/kg/injection, schedule: Q01DX009 (ip), vehicle: DMSO): 3 of 6

C[N+](C)(C)c1ccc([N+](=O)[O-])cn1
survivor count (T/C endpoint: mean survival time, dose: 200.0 mg/kg/injection, schedule: Q04DX003 (ip), vehicle: saline): 1 of 6 | survivor count (T/C endpoint: mean survival time, dose: 400.0 mg/kg/injection, schedule: Q04DX003 (ip), vehicle: saline): 0 of 6

C[n+]1cn(CCCl)c2ccccc21
survivor count (T/C endpoint: mean survival time, dose: 100.0 mg/kg/injection, schedule: Q01DX Z (ip), vehicle: saline): 2 of 6 | survivor count (T/C endpoint: mean survival time, dose: 300.0 mg/kg/injection, schedule: Q01DX Z (ip), vehicle: saline): 0 of 6

CN(C)CCCn1c2nc(=O)[nH]c(=O)c-2nc2cc(Cl)c(Cl)cc21
survivor count (T/C endpoint: mean survival time, dose: 8.0 mg/kg/injection, schedule: Q01DX Z (ip), vehicle: methylcellulose (MC)): 0 of 7

CCc1ccc(NC(=O)NC(C)C)cc1
survivor count [1]: 4 of 6

CCN(/C=C1\CCOC1=O)CC
survivor count (T/C endpoint: mean survival time, dose: 400.0 mg/kg/injection, schedule: Q04DX002 (ip), vehicle: saline): 0 of 3
